Measured data: PubChem BioAssay AID1159578 (Peter MacCallum Cancer Centre, 2015)
In all, the deposit lists about 18,000 reagents; shown is a part drawn at random. In the full data, about 1,030 (5.7%) are marked active. 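Inactive calls also include pools with fewer than 3300 nuclei, whose migration was not assessed.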 Raw values vary from plate to plate and are shown uncorrected. Further read-outs or replicates are left out here.

Test: 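siRNA pools altering how lymphatic endothelial cells close a scratch wound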 (primary screen)
System: human lymphatic endothelial cells
Knock-down reagent: siRNA pool against human genes, 40 nM
Time to read-out: 48 h after transfection
Detection: 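Cells stained with dye and imaged after a scratch; covered wound area and nuclei counted, duplicates averaged, migration set against mock wells and turned into a robust z-score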
Direction: migration robust z-score: higher = faster migration into the scratch; nuclei per well: higher = more cells in the well
Hit rule: 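Pools averaging fewer than 3300 nuclei are never called; remaining pools count as changed when migration robust z lies outside -2 to 2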
Meaning of the calls: active = migration changed; inactive = no migration change, or too few cells

no.	gene	migration robust z-score	migration class with cell-count check	nuclei per well, duplicate mean	Call
1	LY6G5B (GeneID 58496)	0.13	migration z between -2 and 2; enough cells	6214	inactive
2	APAF1 (GeneID 317)	-0.8	migration z between -2 and 2; enough cells	5916	inactive
3	TMEM222 (GeneID 84065)	0.86	migration z between -2 and 2; enough cells	4740	inactive
4	RNF112 (GeneID 7732)	0.24	migration z between -2 and 2; enough cells	5204	inactive
5	SPAST (GeneID 6683)	0.94	migration z between -2 and 2; enough cells	5429	inactive
6	LYVE1 (GeneID 10894)	-3.49	migration z below -2; enough cells	3832	active
7	MARK3 (GeneID 4140)	-4.67	under 3300 nuclei; migration not judged	1954	inactive
8	AMPH (GeneID 273)	0.22	migration z between -2 and 2; enough cells	5780	inactive
9	TAGAP (GeneID 117289)	0.44	migration z between -2 and 2; enough cells	5610	inactive
10	FGFRL1 (GeneID 53834)	-0.68	migration z between -2 and 2; enough cells	4642	inactive
11	OR4C46 (GeneID 119749)	0.26	migration z between -2 and 2; enough cells	5296	inactive
12	SUPT20H (GeneID 55578)	-1.39	migration z between -2 and 2; enough cells	5690	inactive
13	REG1A (GeneID 5967)	-1.15	migration z between -2 and 2; enough cells	5038	inactive
14	MYL7 (GeneID 58498)	-2.51	migration z below -2; enough cells	4146	active
15	APTX (GeneID 54840)	0.94	migration z between -2 and 2; enough cells	5070	inactive
16	PEX11B (GeneID 8799)	-0.62	migration z between -2 and 2; enough cells	5507	inactive
17	PSMC4 (GeneID 5704)	-1.52	migration z between -2 and 2; enough cells	6100	inactive
18	ECPAS (GeneID 23392)	-1.52	migration z between -2 and 2; enough cells	5416	inactive
19	CNGB3 (GeneID 54714)	-0.18	migration z between -2 and 2; enough cells	6544	inactive
20	USP45 (GeneID 85015)	-0.47	migration z between -2 and 2; enough cells	5360	inactive
21	CRYBG3 (GeneID 131544)	0.32	migration z between -2 and 2; enough cells	6344	inactive
22	PODN (GeneID 127435)	-0.34	migration z between -2 and 2; enough cells	5210	inactive
23	MPO (GeneID 4353)	-0.7	migration z between -2 and 2; enough cells	6190	inactive
24	ATP9B (GeneID 374868)	1.38	migration z between -2 and 2; enough cells	5874	inactive
25	PNN (GeneID 5411)	1.08	migration z between -2 and 2; enough cells	5102	inactive
26	SYT14P1 (GeneID 401135)	-0.37	under 3300 nuclei; migration not judged	3028	inactive
27	HECW2 (GeneID 57520)	-1.04	migration z between -2 and 2; enough cells	4883	inactive
28	AQP10 (GeneID 89872)	0.2	migration z between -2 and 2; enough cells	6786	inactive
29	CENPA (GeneID 1058)	-0.24	migration z between -2 and 2; enough cells	5719	inactive
30	SERPINA3 (GeneID 12)	0	migration z between -2 and 2; enough cells	5490	inactive
31	TLX1 (GeneID 3195)	-0.02	migration z between -2 and 2; enough cells	5740	inactive
32	UTP20 (GeneID 27340)	-0.64	migration z between -2 and 2; enough cells	5975	inactive
33	ENOX1 (GeneID 55068)	-0.82	migration z between -2 and 2; enough cells	5892	inactive
34	KLHL31 (GeneID 401265)	0.9	migration z between -2 and 2; enough cells	5780	inactive
35	ZNF467 (GeneID 168544)	-2.36	migration z below -2; enough cells	5258	active
36	CNTLN (GeneID 54875)	0.74	migration z between -2 and 2; enough cells	6315	inactive
37	NXNL2 (GeneID 158046)	-0.68	migration z between -2 and 2; enough cells	5939	inactive
38	MTCL1 (GeneID 23255)	0.71	migration z between -2 and 2; enough cells	5847	inactive
39	COX8C (GeneID 341947)	-0.8	migration z between -2 and 2; enough cells	4778	inactive
40	IL1RAPL1 (GeneID 11141)	-1.14	migration z between -2 and 2; enough cells	3855	inactive
41	RIMOC1 (GeneID 285636)	-1.23	migration z between -2 and 2; enough cells	4774	inactive
42	FGF22 (GeneID 27006)	-2.48	under 3300 nuclei; migration not judged	2279	inactive
43	RANBP6 (GeneID 26953)	2.09	migration z above 2; enough cells	4890	active
44	CT47A8 (GeneID 728049)	-0.35	migration z between -2 and 2; enough cells	5760	inactive
45	MSTN (GeneID 2660)	-0.7	migration z between -2 and 2; enough cells	4812	inactive
46	OR2B3 (GeneID 442184)	-0.38	migration z between -2 and 2; enough cells	6186	inactive
47	STX10 (GeneID 8677)	0.66	migration z between -2 and 2; enough cells	6604	inactive
48	TPRKB (GeneID 51002)	-0.58	migration z between -2 and 2; enough cells	6294	inactive

The list goes on (9 carried over from the part before).
no.	gene	migration robust z-score	migration class with cell-count check	nuclei per well, duplicate mean	Call
40	IL1RAPL1 (GeneID 11141)	-1.14	migration z between -2 and 2; enough cells	3855	inactive
41	RIMOC1 (GeneID 285636)	-1.23	migration z between -2 and 2; enough cells	4774	inactive
42	FGF22 (GeneID 27006)	-2.48	under 3300 nuclei; migration not judged	2279	inactive
43	RANBP6 (GeneID 26953)	2.09	migration z above 2; enough cells	4890	active
44	CT47A8 (GeneID 728049)	-0.35	migration z between -2 and 2; enough cells	5760	inactive
45	MSTN (GeneID 2660)	-0.7	migration z between -2 and 2; enough cells	4812	inactive
46	OR2B3 (GeneID 442184)	-0.38	migration z between -2 and 2; enough cells	6186	inactive
47	STX10 (GeneID 8677)	0.66	migration z between -2 and 2; enough cells	6604	inactive
48	TPRKB (GeneID 51002)	-0.58	migration z between -2 and 2; enough cells	6294	inactive
49	GATM (GeneID 2628)	0.18	migration z between -2 and 2; enough cells	6628	inactive
50	CFHR2 (GeneID 3080)	-1.48	migration z between -2 and 2; enough cells	5992	inactive
51	ZNF281 (GeneID 23528)	1.27	migration z between -2 and 2; enough cells	4348	inactive
52	KRT84 (GeneID 3890)	1.88	migration z between -2 and 2; enough cells	7189	inactive
53	TBC1D26 (GeneID 353149)	0.42	migration z between -2 and 2; enough cells	4651	inactive
54	DCUN1D2 (GeneID 55208)	1.3	migration z between -2 and 2; enough cells	4994	inactive
55	DENND1C (GeneID 79958)	-0.96	migration z between -2 and 2; enough cells	5470	inactive
56	ANKRD13C-DT (GeneID 11147)	-0.66	under 3300 nuclei; migration not judged	3256	inactive
57	DKK3 (GeneID 27122)	0.52	migration z between -2 and 2; enough cells	5597	inactive
58	ANOS1 (GeneID 3730)	-0.05	migration z between -2 and 2; enough cells	4576	inactive
59	TTK (GeneID 7272)	-2.62	under 3300 nuclei; migration not judged	1984	inactive
60	ARID3A (GeneID 1820)	-1.01	migration z between -2 and 2; enough cells	5130	inactive
61	UQCRB (GeneID 7381)	0.93	migration z between -2 and 2; enough cells	5452	inactive
62	HSD17B13 (GeneID 345275)	0.33	migration z between -2 and 2; enough cells	7427	inactive
63	ACSM2B (GeneID 348158)	-0.52	migration z between -2 and 2; enough cells	6536	inactive
64	NUDC (GeneID 10726)	-1.53	migration z between -2 and 2; enough cells	6285	inactive
65	B3GNT2 (GeneID 10678)	0.67	migration z between -2 and 2; enough cells	6056	inactive
66	PRSS3 (GeneID 5646)	-1.45	migration z between -2 and 2; enough cells	5832	inactive
67	HLA-DMA (GeneID 3108)	-0.62	migration z between -2 and 2; enough cells	5838	inactive
68	PDZD8 (GeneID 118987)	-1.02	migration z between -2 and 2; enough cells	5483	inactive
69	PIK3C3 (GeneID 5289)	-0.13	migration z between -2 and 2; enough cells	4692	inactive
70	TTC39A (GeneID 22996)	-0.16	migration z between -2 and 2; enough cells	7439	inactive
71	OSTC (GeneID 58505)	0.02	migration z between -2 and 2; enough cells	5518	inactive
72	IPMK (GeneID 253430)	0.78	migration z between -2 and 2; enough cells	5100	inactive
73	DNAH11 (GeneID 8701)	0.08	migration z between -2 and 2; enough cells	5604	inactive
